Measurements reported in PubChem BioAssay AID1259405 (NCATS, 2018)

Test: 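Silenced genes that increase secreted GFP made by CHO cells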 (primary screen)
Cells: Chinese hamster CHO-K1 ovary cells with stable secreted eGFP expression
Knock-down reagent: single siRNA against mouse genes, 0.8 pmol siRNA per well (2 µl of 400 nM stock)
Time to read-out: 3 days
Measurement: 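Per-well intracellular GFP measured by laser scanning cytometry, plus viability from ATP luminescence, each relative to plate median of non-targeting control wells, in %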
Direction: GFP, % of control: higher = more GFP per well, higher productivity
Rule for the call: 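a knock-down is called active if GFP reaches 120% or more of non-targeting control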
Here is one part, drawn at random, of about 50,000 reagents tested. About 4,000 of all reagents (8%) were called active. 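Mouse siRNA library applied to hamster cells; one well for each siRNA.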 The numbers tell different reagents against one gene apart. Further read-outs or replicates are left out here.

GFP, % of control, by target and reagent
Art4: #1 35.4 inactive; #2 59.2 inactive; #3 86.5 inactive
Katnal1: #1 55 inactive; #2 51.5 inactive; #3 54.3 inactive
Krtap13: #1 66.9 inactive; #2 66.3 inactive; #3 112 inactive
Dppa4: #1 93.9 inactive; #2 80.1 inactive; #3 126 active
Arhgap35: #1 45.3 inactive; #2 51.2 inactive; #3 86.9 inactive
Urod: #1 34.2 inactive; #2 96.4 inactive; #3 26.7 inactive
Foxo6: #1 91.9 inactive; #2 79.5 inactive; #3 68 inactive
Tollip: #1 98.6 inactive; #2 94.6 inactive; #3 134 active
Fat3: #1 57.9 inactive; #2 118 inactive; #3 45.8 inactive
Or6c214: #1 52.8 inactive; #2 75.5 inactive; #3 46.1 inactive
Rragb: #1 86.2 inactive; #2 115 inactive; #3 94.8 inactive

Records listed so far whose gene name starts with O or o:
GFP, % of control, by target and reagent
Or6c214: #1 52.8 inactive; #2 75.5 inactive; #3 46.1 inactive

Continued:
GFP, % of control, by target and reagent
Magi2: #1 66.7 inactive; #2 71.2 inactive; #3 74.4 inactive
A430005L14Rik: #1 58.4 inactive; #2 60.6 inactive; #3 70.6 inactive
Pum3: #1 59.9 inactive; #2 54.1 inactive; #3 55.7 inactive
Or8h7: #1 83.5 inactive; #2 123 active; #3 71.3 inactive
Brd10: #1 51.6 inactive; #2 102 inactive; #3 80.7 inactive
Vma22: #1 99.4 inactive; #2 64.8 inactive; #3 16.6 inactive
Slc35g1: #1 96.7 inactive; #2 97.9 inactive; #3 139 active
Pla2g6: #1 43.7 inactive; #2 105 inactive; #3 106 inactive
